Reference: PubChem BioAssay AID1259314 (Drosophila RNAi Screening Center, 2017)
In all, the deposit lists about 3,100 reagents; below is an unselected part. Over the whole deposit, 289 (9.3%) are marked active. 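Active includes both higher and lower ATP than plate average; check the z-score sign for direction.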 Entries without a mark were called inactive. The record does not give: the amount of reagent.

- Purpose: 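Modifiers of manganese chloride toxicity in fly cells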 (primary screen)
- Cell system: Drosophila S2R+ cells
- Reagent: long dsRNA against Drosophila genes
- Duration: 5 days (4 days knock-down, then 1 day metal exposure)
- Conditions: manganese chloride added to 15 mM for 24 hours
- Read-out: 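Cellular ATP measured by luciferase light, scaled to the plate mean, averaged across replicates and z-scored over plates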
- Scale: mean ATP z-score: higher = more ATP than the plate average, more viable cells under manganese
- Hit rule: 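Called active when the mean ATP z-score is above 1.5 or below -1.5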
- Meaning of the calls: active = strong ATP change, up or down; inactive = no strong ATP change

Against Cad96Cb (GeneID 43033) [DRSC14243], the entry reads mean ATP z-score 0.668.
Cad96Cb (GeneID 43033) [DRSC14665] scored mean ATP z-score -0.247.
Cad96Cb (GeneID 43033) [DRSC28720] scored mean ATP z-score 0.498.
After knock-down of Tim17b2 (GeneID 44381) [DRSC28544], the screen gave mean ATP z-score 0.0299.
Silencing of oys (GeneID 36045) [DRSC05203] came out at: mean ATP z-score -1.82 (active).
Knock-down of oys (GeneID 36045) [DRSC06751] resulted in: mean ATP z-score -0.988.
oys (GeneID 36045) [DRSC26939] showed mean ATP z-score -0.0695.
ihog (GeneID 33972) [DRSC03157] showed mean ATP z-score 0.71.
Silencing of ihog (GeneID 33972) [DRSC29581] resulted in: mean ATP z-score -0.597.
Against jef (GeneID 36634) [DRSC06198] the deposit lists mean ATP z-score 1.3.
After knock-down of jef (GeneID 36634) [DRSC24815], the record shows mean ATP z-score 0.332.
After knock-down of pyx (GeneID 38037) [DRSC08511], the record shows mean ATP z-score -1.26.
Silencing of pyx (GeneID 38037) [DRSC28167] resulted in: mean ATP z-score 0.463.
Knock-down of Ir25a (GeneID 33683) [DRSC00462] came out at: mean ATP z-score 1.45.
For Ir25a (GeneID 33683) [DRSC26910] the deposit lists mean ATP z-score -0.797.
Depletion of Toll-4 (GeneID 34235) [DRSC03458] resulted in: mean ATP z-score -0.809.
For Toll-4 (GeneID 34235) [DRSC39440], the entry reads mean ATP z-score -0.439.
Silencing of Sdr (GeneID 41809) [DRSC15517] resulted in: mean ATP z-score -0.511.
Sdr (GeneID 41809) [DRSC36929] scored mean ATP z-score 0.218.
With knock-down of Sdr (GeneID 41809) [DRSC36930], the record shows mean ATP z-score 0.33.
Against PlexA (GeneID 43832) [DRSC17220] the deposit lists mean ATP z-score 0.0946.
CrzR (GeneID 39409) [DRSC09781] showed mean ATP z-score -1.01.
CrzR (GeneID 39409) [DRSC09782] scored mean ATP z-score -0.304.
Against SIFaR (GeneID 42530) [DRSC13467] the deposit lists mean ATP z-score -0.349.
After knock-down of SIFaR (GeneID 42530) [DRSC14266], the screen gave mean ATP z-score 0.258.
After knock-down of opm (GeneID 32435) [DRSC22135] the results were mean ATP z-score -0.938.
For opm (GeneID 32435) [DRSC29575], the values are mean ATP z-score -0.247.
Silencing of CNMaR (GeneID 39127) [DRSC08992] resulted in: mean ATP z-score 0.581.
CNMaR (GeneID 39127) [DRSC10224] gave mean ATP z-score -1.55 (active).
Against Sr-CII (GeneID 44219) [DRSC07557], the entry reads mean ATP z-score -1.16.
With knock-down of Sr-CII (GeneID 44219) [DRSC25606] the results were mean ATP z-score 1.87 (active).
Knock-down of put (GeneID 41772) [DRSC17039] gave: mean ATP z-score 0.
For put (GeneID 41772) [DRSC36611] the deposit lists mean ATP z-score 0.385.
Depletion of put (GeneID 41772) [DRSC36612] came out at: mean ATP z-score 0.198.

Records listed above with an active call, once more:
oys (GeneID 36045) [DRSC05203] → mean ATP z-score = -1.82 (active)
CNMaR (GeneID 39127) [DRSC10224] → mean ATP z-score = -1.55 (active)
Sr-CII (GeneID 44219) [DRSC25606] → mean ATP z-score = 1.87 (active)

More records:
With knock-down of mthl14 (GeneID 318046) [DRSC07865] the results were mean ATP z-score -0.756.
After knock-down of mthl14 (GeneID 318046) [DRSC39645] the results were mean ATP z-score -1.03.
Knock-down of rk (GeneID 34819) [DRSC03602] came out at: mean ATP z-score -0.234.
CG31600 (GeneID 318834) [DRSC30096] gave mean ATP z-score 0.157.
With knock-down of CG31600 (GeneID 318834) [DRSC39836], the record shows mean ATP z-score -1.29.
For CG4991 (GeneID 32695) [DRSC19928] the deposit lists mean ATP z-score -0.818.
CG4991 (GeneID 32695) [DRSC39735] gave mean ATP z-score 0.36.
Against CG42514 (GeneID 8674108) [DRSC10428] the deposit lists mean ATP z-score 0.563.
PK1-R (GeneID 41713) [DRSC16577] gave mean ATP z-score -0.253.
Knock-down of ACXE (GeneID 53426) [DRSC00847] resulted in: mean ATP z-score -0.485.
After knock-down of mthl12 (GeneID 261599) [DRSC12964], the record shows mean ATP z-score -0.566.
For CG4324 (GeneID 37830) [DRSC04462] the deposit lists mean ATP z-score -1.31.
CG4324 (GeneID 37830) [DRSC27530] showed mean ATP z-score -0.503.
Depletion of CG3036 (GeneID 33695) [DRSC00562] resulted in: mean ATP z-score -1.22.
Depletion of CG3036 (GeneID 33695) [DRSC24856] gave: mean ATP z-score -0.141.
Knock-down of CG9270 (GeneID 35366) [DRSC03182] came out at: mean ATP z-score -1.12.
With knock-down of CG12194 (GeneID 33685) [DRSC00345], the screen gave mean ATP z-score -0.345.
For CG12194 (GeneID 33685) [DRSC24918], the entry reads mean ATP z-score 1.26.
With knock-down of Tmtc1 (GeneID 33455) [DRSC00314] the results were mean ATP z-score -0.39.
Depletion of Tmtc1 (GeneID 33455) [DRSC00411] gave: mean ATP z-score 1.08.
Silencing of CG1607 (GeneID 43707) [DRSC15130] gave: mean ATP z-score 0.579.
CG1607 (GeneID 43707) [DRSC27010] showed mean ATP z-score 0.0336.
CG42269 (GeneID 38689) [DRSC10672] scored mean ATP z-score -0.772.
For CG42269 (GeneID 38689) [DRSC24477] the deposit lists mean ATP z-score 0.751.
Against CG13016 (GeneID 36562) [DRSC06271] the deposit lists mean ATP z-score -0.78.
For CG13016 (GeneID 36562) [DRSC39858], the entry reads mean ATP z-score -1.17.
